The match of structure and compound is tentative.
Target: RORc ligand binding domain (Homo sapiens, UniProt P51449)
Assay: In vitro RORc ligand binding assay (25-[3H]hydroxycholesterol displacement, filter binding)
Conditions: read-out: RORc IC50

The chains behind the UniProt entries cited, without tags or fusion partners. Residues count along the entry.
UniProt P51449, 269-508 limits assumed: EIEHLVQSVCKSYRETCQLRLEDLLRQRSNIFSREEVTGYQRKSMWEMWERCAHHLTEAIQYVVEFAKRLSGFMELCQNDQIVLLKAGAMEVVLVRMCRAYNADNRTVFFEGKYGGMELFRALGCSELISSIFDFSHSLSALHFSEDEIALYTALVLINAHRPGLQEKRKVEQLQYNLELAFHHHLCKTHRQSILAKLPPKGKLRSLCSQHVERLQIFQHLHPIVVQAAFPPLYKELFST

- IC50: 0.037 µM
Compound: Cc1nc(N2CCO[C@@H]([C@@]34CC[C@@H](c5cc(-c6c(F)cccc6F)nnc53)C4(C)C)C2)n(Cc2ccccc2)n1

Source: patent publication US9994551B2, “Pyridazine derivatives as RORc modulators” (Genentech, Inc., priority 2015, dated 2018)
